Assay results published in PubChem BioAssay AID587 (National Center for Advancing Translational Sciences (NCATS), 2007).
In all, about 59,000 compounds went through this assay and about 35 (0.06%) were called active. The inconclusive results got no clear call from the source; some entries with a clear call stand among them for comparison. Cut-off read from the data, not from the text of the source: active = max dye-equivalent concentration above about 10 nM; inconclusive = between about 1.1 nM and that limit; inactive = weaker than that.

Assay: qHTS Assay for Spectroscopic Profiling in Texas Red Spectral Region
Settings: Compound fluorescence, Texas Red channel, 547/618 nm; hits give high values
How it was run: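 qHTS profiling of intrinsic compound fluorescence; 100 mM Tris pH 8.0; 15 min RT; ex 547 / em 618 nm; response expressed as Texas Red dye-equivalent concentration from six-point plate standard.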

Compound | max dye-equivalent concentration
CCOc1ncccc1C(=O)OCC(=O)N1CCN(S(=O)(=O)c2ccc(Cl)cc2)CC1 | inconclusive: 1.9 nM
COc1cc2c(cc1NC(=O)CSCC(=O)O)oc1ccccc12 | inconclusive: 1.2 nM
Cc1ccc(NC(=O)C2C(=O)N(CCO)C3(C)CC2c2ccccc2O3)cc1 (stereo unspecified) | inconclusive: 1.3 nM
Cn1c(=O)c(-c2cccs2)nc2cnc(OCc3ccccc3)nc21 | inactive
O=S(=O)(c1ccccc1)N1CCC2(CC1)CN(Cc1nccs1)C2 | inactive
COc1ccc(N2CCN(C(=O)c3ccc(-n4nc(C)cc4C)cc3)CC2)cc1 | inconclusive: 1.1 nM
O=C(CCNc1n[nH]c(=O)[nH]c1=O)N1CCCCC1 | inconclusive: 1.1 nM
CCOc1ccc(NC(=O)N(C2CCCCC2)C(C)c2ccncc2)cc1 (stereo unspecified) | inconclusive: 1.6 nM
COc1ccc(/C(O)=C2\C(=O)C(=O)N(CCN(C)C)C2c2cccc(OC)c2OC)cc1 (stereo unspecified) | inconclusive: 1.3 nM
CCCCNC(=O)N1CCOCCOCCN(C(=O)NCCCC)CCOCCOCC1 | inconclusive: 1.1 nM
COC(=O)COc1ccc(S(=O)(=O)Nc2ccc(NC(C)=O)cc2)cc1C | inconclusive: 2 nM
O=C1CC(C(=O)Nc2ncccn2)C(c2ccccc2)O1 (stereo unspecified) | inconclusive: 1.5 nM
Cc1ccc(OCC(=O)N2CCN(C3=NS(=O)(=O)c4ccccc43)CC2)cc1 | inconclusive: 1.2 nM
CCC(=O)c1ccccc1OCCSc1nc(C)cc(=O)[nH]1 | inconclusive: 1.4 nM
CCOC(=O)C1CCCN(C(=O)C2CCN(S(=O)(=O)N3CCC4(CC3)OCCO4)CC2)C1 (stereo unspecified) | inconclusive: 1.2 nM
CCC(=O)Nc1ccc(NC(=O)CSc2nnnn2CC)cc1C | inconclusive: 1.3 nM
CC(C)Cn1cc(C(=O)NCCCN2CCCC2=O)c2c3ccccc3n(C)c2c1=O | inconclusive: 2.1 nM
CCOc1ncccc1C(=O)Oc1ccc2c(c1)OCO2 | inconclusive: 1.1 nM
N#Cc1cn(CC(=O)NCCc2c[nH]c3ccccc23)c2ccccc12 | inconclusive: 1.1 nM

Compound | max dye-equivalent concentration
N=c1c(S(=O)(=O)c2ccccc2)cc2c(=O)n3ccccc3nc2n1Cc1ccco1 | inactive
COc1cc(C(=O)O)ccc1OCC(=O)N1CCOCC1 | inconclusive: 1.2 nM
COc1cc2cc(C)c3nnc(SCC(N)=O)n3c2cc1OC | inconclusive: 1.2 nM
O=S(=O)(Cc1ccccc1)N1CCc2ccccc21 | active: 20 nM
CCn1cc(C(=O)Nc2ccccc2C(=O)OC)c(=O)c2ccc(C)nc21 | inconclusive: 1.2 nM
COc1cc2c(cc1OC)C(c1cccs1)CC(=O)N2 (stereo unspecified) | inconclusive: 1.6 nM
O=C(c1ccccc1F)N1CCN(c2ccccc2)CC1 | inconclusive: 1.1 nM
Nc1nc2ccc(OC(F)(F)F)cc2s1 | inconclusive: 1.2 nM
CCOC(=O)CNC(=O)CSc1nnnn1-c1cc(C)ccc1C | inconclusive: 1.2 nM
C=CCn1c(=O)c2c(C)c(C)sc2n2c(Nc3ccccc3)nnc12 | inconclusive: 1.1 nM
CCOC(=O)C(Cc1ccccc1)NS(=O)(=O)c1ccc(NC(C)=O)cc1 (stereo unspecified) | inconclusive: 1.3 nM
C=CCn1c(CCC(=O)O)ccc1-c1ccccc1 | inactive
Cc1cc(N2CCN(C(c3ccccc3)c3ccccc3)CC2)n2ncnc2n1 | inconclusive: 1.3 nM
CSc1ccc(S(=O)(=O)Nc2c(C)cccc2C)cc1 | inconclusive: 2 nM
CCOCCCNC(=O)C1CCN(S(=O)(=O)N2CCCCC2)CC1 | inconclusive: 1.8 nM
O=C(OCc1cc2ccccc2[nH]c1=O)c1ccccn1 | inconclusive: 1.1 nM
COc1ccc(-c2cc3nc4n(c(=O)c3s2)CCC4)cc1 | inconclusive: 2.2 nM
CCOc1ccc(NC(=O)c2ccncc2)cc1 | inconclusive: 1.4 nM
Oc1ccccc1-c1cc(-c2cccc(F)c2)n[nH]1 | inconclusive: 1.2 nM

Part of the list above in order of molar mass, high to low.
Compound | max dye-equivalent concentration
Cc1cc(N2CCN(C(c3ccccc3)c3ccccc3)CC2)n2ncnc2n1 | inconclusive: 1.3 nM
Oc1ccccc1-c1cc(-c2cccc(F)c2)n[nH]1 | inconclusive: 1.2 nM
CCOc1ccc(NC(=O)c2ccncc2)cc1 | inconclusive: 1.4 nM

More compounds follow:

Compound | max dye-equivalent concentration
O=C1c2ccccc2C(=O)N1CCC(=O)N1CCCc2ccccc21 | inactive
CCOC(=O)c1cccc(NC(=O)N[C@@H](C)C(=O)OC)c1 | inconclusive: 1.2 nM
Cn1c(=O)[nH]c(=O)c2c1nc(Br)n2CCC(=O)c1ccccc1 | inconclusive: 1.6 nM
O=C(CSc1nnnn1Cc1ccccc1)NCCc1ccccc1 | inconclusive: 1.3 nM
COc1cccc(CNCC(=O)N2C(C)CCCC2C)c1 (stereo unspecified) | inconclusive: 3.4 nM
O=C1Nc2ccccc2C1=Nc1ccc(-c2nnc3n2CCCCC3)cc1 | inconclusive: 1.2 nM
COC(=O)CCCc1nc2ccccc2s1 | inconclusive: 1.2 nM
Cc1ccc(N2C(=O)[C@@H]3[C@H](C2=O)C2c4ccccc4C=CN2[C@@H]3C(=O)c2ccco2)cc1 (stereo partly specified) | inconclusive: 1.7 nM
CN(C)CCCN1C(=O)C(=O)/C(=C(/O)c2ccc3c(c2)OCO3)C1c1ccccn1 (stereo unspecified) | inconclusive: 1.5 nM
Cn1nnnc1SCc1ccc(C(=O)Nc2nccs2)cc1 | inconclusive: 1.1 nM
COc1ccc(-c2noc(CCC(N)=O)n2)cc1OC | inconclusive: 2 nM
COc1nc(-c2ccccc2)cc(-c2ccccc2)n1 | inconclusive: 1.2 nM
Cc1cccc(N(Cc2nnc3n2CCCCC3)C(=O)Nc2ccccc2)c1 | inconclusive: 2.3 nM
CCN1CC=C2C(C#N)=C(N)C(C#N)(C#N)[C@H](c3cccc(OC)c3OC)[C@H]2C1 | inactive
O=C(CN1C(=O)c2ccccc2S1(=O)=O)N1CCN(c2ccccc2)CC1 | inconclusive: 1.1 nM
CC(C)C[C@H](NC(=O)N1CCN(c2ccccc2)CC1)C(=O)O | inconclusive: 1.1 nM
COC(=O)c1ccc(NS(=O)(=O)c2ccc(SC)cc2)cc1 | inconclusive: 1.6 nM
C=CCOC(=O)C(C#N)c1nc2ccccc2nc1N1CCN(Cc2ccccc2)CC1 (stereo unspecified) | inconclusive: 1.3 nM
